PubChem BioAssay AID1439 (NMMLSC, 2008)
The campaign covered roughly 220,000 compounds. About 770 (0.35%) were called active. Inconclusive means that the source gave no clear call. Such entries were picked first, then a sample of the others. Rule as the data show it: active = binding response below about 49% or above about 150%; inconclusive = no clear call, values can overlap the other calls; inactive = in between.

The chains behind the UniProt entries cited, without tags or fusion partners.
UniProt P09471, whole entry, looked up: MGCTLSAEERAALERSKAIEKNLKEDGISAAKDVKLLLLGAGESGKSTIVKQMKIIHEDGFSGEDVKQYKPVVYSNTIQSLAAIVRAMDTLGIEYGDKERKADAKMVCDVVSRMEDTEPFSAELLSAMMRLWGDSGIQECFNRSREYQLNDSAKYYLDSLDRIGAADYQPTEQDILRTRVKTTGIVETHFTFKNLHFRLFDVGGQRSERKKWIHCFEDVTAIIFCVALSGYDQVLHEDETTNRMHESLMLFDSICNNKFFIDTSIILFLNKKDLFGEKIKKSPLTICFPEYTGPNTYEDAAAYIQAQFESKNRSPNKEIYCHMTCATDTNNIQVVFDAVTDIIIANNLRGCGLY

These compounds were tested against Guanine nucleotide-binding protein G(o) subunit alpha (Homo sapiens) (UniProt P09471) (assay: RGS7-Galphao binding modulators, primary screen, biochemical, multiplexed bead flow cytometry (AID 1439;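 also: fluorescent Galphao held in activated GDP-AlF4 state binding bead-coupled RGS7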)). Details: at 10 µM, actives lie on both sides.

| SMILES | binding response (% of control) |
| --- | --- |
| CC1=NN(c2ccccc2)C(=O)/C1=C\c1sccc1C | inconclusive: 344% |
| Cc1ccc(/C=N/NC(=O)CN2CCN(Cc3ccccc3Cl)CC2)o1 | inconclusive: 156% |
| Cc1cc(=O)oc2cc(OCCCC[n+]3ccccc3)ccc12 | inconclusive: 97.3% |
| CCOC(=O)N1CCN(C(=O)c2ccc(SC)cc2OC)CC1 | inactive: 99.1% |
| Cc1ccc(C(=O)OCC(=O)NCc2cccs2)cc1C | inconclusive: 105% |
| COC(=O)c1ccc(CSc2cc(C)c3ccccc3n2)o1 | inconclusive: 104% |
| O=S(=O)(c1cnc(Cl)c(Cl)c1)N1CCN(c2ncccn2)CC1 | inconclusive: 216% |
| COc1ccc(Cl)cc1C(=O)NNC(=O)c1nc2nc(C)cc(C)n2n1 | inconclusive: 65.2% |
| CC12COC3(C(=O)Nc4ccc([N+](=O)[O-])cc4)CC1CCC32C (centres undefined) | inactive: 105% |
| O=C1[C@H]2[C@H](ON3CCCC[C@H]23)C(=O)N1c1cccc(C(F)(F)F)c1 | inconclusive: 107% |
| COc1cc(OC)cc(C(=O)OC/C(O)=C(\C#N)c2nc3ccccc3[nH]2)c1 | inconclusive: 97.6% |
| O=C(CN1CCOCC1)Nc1ccc2c(c1)OCCO2 | inconclusive: 74.8% |
| CC(=O)c1ccc(-n2nncc2-c2ccc([N+](=O)[O-])cc2)cc1 | inconclusive: 99.4% |
| Cc1ccc2nc(-c3ccc(NC(=O)CNC4CC4)cc3)sc2c1 | active: 217% [activator] |
| COC(=O)[C@@H]1C[C@@H]2CC[C@@H](O)C[C@@H]2N1Cc1ccc(Cl)cc1 | inconclusive: 126% |
| C=CCn1c(C)cc(C(=O)Cn2c(C(C)O)nc3ccccc32)c1C (centres undefined) | inconclusive: 98.7% |
| CCOCCn1c(CN2CCc3ccccc3C2)nc2c1c(=O)n(C)c(=O)n2C | inconclusive: 100% |
| COc1ccc(CCNC(=O)COc2ccccc2[N+](=O)[O-])cc1OC | inconclusive: 77.1% |
| CCN(CC)C(=O)CCSc1nnc(-c2ccco2)o1 | inactive: 104% |
| CCCCN(C(=O)CSc1nnc(-c2ccco2)o1)c1c(N)n(Cc2ccccc2)c(=O)[nH]c1=O | inconclusive: 263% |

| SMILES | binding response (% of control) |
| --- | --- |
| Cn1cccc1/C=C1\SC(=S)N(NC(=O)c2ccccc2O)C1=O | inconclusive: 112% |
| O=C(CCC(=O)N1CCN(c2ccccc2)CC1)Nc1nnc(C2CCCCC2)s1 | inconclusive: 89.4% |
| O=C(CSc1nc2ccccc2s1)Nc1ccc(C(=O)O)cc1 | inconclusive: 875% |
| CCCSc1nc2c(c(=O)[nH]c(=O)n2C)n1CC(O)COc1ccccc1 (centres undefined) | inconclusive: -947% |
| CN(CC(=O)Nc1cccc(F)c1)CC(=O)Nc1cccc(S(=O)(=O)N2CCCCCC2)c1 | inconclusive: 79% |
| CC1(C(=O)N/N=C/c2ccc([N+](=O)[O-])o2)CC1(Br)Br (centres undefined) | inactive: 84.3% |
| Cc1noc(C)c1CN(C(=S)NC1CC2CCC1C2)c1ccccc1 (centres undefined) | inconclusive: 106% |
| CC(C)N(C)NC(=S)Nc1ccccc1 | inactive: 93.5% |
| Cc1cccc(C)c1NC(=O)COC(=O)c1ccccc1[N+](=O)[O-] | inactive: 96.7% |
| O=C(N/N=C/c1cccc(O)c1)c1ccccc1O | inconclusive: 129% |
| COC(=O)c1cc(=O)n(Cc2cccs2)c(=Nc2ccccc2)s1 | inconclusive: 133% |
| CC1CCN(S(=O)(=O)c2cn(CC(=O)N3CC(C)CC(C)C3)c(=O)c3ccccc23)CC1 (centres undefined) | inactive: 103% |
| CCOC(=O)C1(Cc2ccc(Cl)cc2)CCN(C(=O)c2cnc(C)cn2)CC1 | inconclusive: -64% |
| O=C(NCc1cccnc1)c1ccc(Br)s1 | inconclusive: 102% |
| CN(C)C=NC(=O)c1cn(-c2ccc(F)cc2)c(=O)c2ccccc12 | inactive: 111% |
| CCOc1ccc(N2CC(=O)N/C2=N\c2nc(C)cc(C)n2)cc1 | inactive: 100% |
| O=C(c1ccc2ncsc2c1)N1CCN(c2ccccc2Cl)CC1 | inconclusive: 112% |
| N#C/C(=C\c1cn(CCOc2ccccc2)c2ccccc12)C(=O)NCc1cccs1 | inactive: 105% |
| Clc1cc2cccnc2c2ccccc12 | active: -24% |
| Cn1c(C(=O)NCCN2CCN(Cc3ccccc3)CC2)cc2c(=O)n(C)c3ccccc3c21 | inconclusive: 121% |

| SMILES | binding response (% of control) |
| --- | --- |
| COC(=O)c1ccccc1NC(=S)N1CCN(C2CCCCC2)CC1 | inconclusive: 135% |
| CC1CC(=O)Nc2cc([N+](=O)[O-])ccc2N1 (centres undefined) | inconclusive: 119% |
| CCc1n[nH]c(=S)n1/N=C/c1ccc(N(CC)CC)cc1 | inconclusive: 92.4% |
| Nc1nnc(CC(=O)N/N=C/c2cc([N+](=O)[O-])cc(Br)c2O)s1 | inconclusive: 55.4% |
| Cc1ccc(-c2cc3ccccc3nc2N2CCOCC2)cc1 | inconclusive: 99.2% |
| O=C1Nc2ccccc2C1=Nc1ccc(S(=O)(=O)Nc2nccs2)cc1 | inconclusive: 36.7% |
| c1cnc(-c2noc(CN3CCN(C4CCCC4)CC3)n2)cn1 | inactive: 104% |
| Cc1ccn2c(=O)c(C(=O)O)cnc2c1 | inconclusive: 719% |
| CN(C)C(=S)Nc1ccc(Br)cc1Cl | inconclusive: 83.2% |
| Cc1ccc2nsnc2c1NC(=O)COc1ccccc1F | inconclusive: 123% |
| Cc1ccc2c(c1)N(CC(=O)NCc1ccco1)C(=O)C(C(C)C)O2 (centres undefined) | inconclusive: 86.9% |
| S=c1[nH]nc(-c2cccc(Cl)c2)n1/N=C/c1ccc(-c2ccccc2Br)o1 | inconclusive: 113% |
| O=C(Cn1nc2sc3ccccc3n2c(=O)c1=O)c1ccc(Cl)cc1 | inconclusive: -177% |
| COc1ccc(CCNC(=O)CSc2nc(O)cc(=O)[nH]2)cc1OC | inconclusive: 102% |
| CCOC(=O)c1ccc(NC(=O)N2CCN(C(=O)c3ccco3)CC2)cc1 | inactive: 102% |
| Cc1c(C(=O)N2CCOCC2)cc(C(C)(C)C)n1-c1ccccc1 | inconclusive: -160% |
| Cc1nc(SCC(=O)NCc2ccccc2)c2oc3ccccc3c2n1 | inactive: 105% |
| Cc1ccc(C(=O)/C=C/C(=O)c2ccc(C)cc2)cc1 | inconclusive: 82.2% |
| Cn1nc(-c2ccc(Cl)cc2)cc1NC(=O)CCCC(=O)O | inconclusive: 90% |

As entered above:
S=c1[nH]nc(-c2cccc(Cl)c2)n1/N=C/c1ccc(-c2ccccc2Br)o1 | binding response (% of control): inconclusive: 113%
COC(=O)[C@@H]1C[C@@H]2CC[C@@H](O)C[C@@H]2N1Cc1ccc(Cl)cc1 | binding response (% of control): inconclusive: 126%
CCCCN(C(=O)CSc1nnc(-c2ccco2)o1)c1c(N)n(Cc2ccccc2)c(=O)[nH]c1=O | binding response (% of control): inconclusive: 263%
COc1cc(OC)cc(C(=O)OC/C(O)=C(\C#N)c2nc3ccccc3[nH]2)c1 | binding response (% of control): inconclusive: 97.6%
